Measurements from PubChem BioAssay AID504834 (National Center for Advancing Translational Sciences (NCATS), 2011).
Among all 320,000 compounds or so, about 22,000 (6.9%) were called active. This list was built around the results that the source calls inconclusive (neither active nor inactive); the mix of calls is not that of the screen. Calls come from the whole dose curve; as a rule, active = well fitted inhibition curve with a large enough effect; inconclusive = small, poorly fitted or top-dose-only effect, or another doubt; inactive = no such curve, though single readings can be large or run the other way. Potencies of inconclusive entries are doubtful fits and often do not repeat.

Test: Primary qHTS for delayed death inhibitors of the malarial parasite plastid, 96 hour incubation
Conditions: P. falciparum luciferase reporter growth; series mostly up to 28.7 µM
Outline: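 Luminescence readout: decreased luciferase signal marks inhibited growth of reporter-expressing P. falciparum in infected red cells (2% hematocrit, 0.05% parasitemia final), exposed to compound two generations (96 h, 37 C, 5% CO2).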
Potency is the fitted concentration of half-maximal effect.

| Compound | Potency |
| --- | --- |
| CCC1(c2ccccc2)NC(=O)N(CC(=O)NC2(C#N)CCCCC2)C1=O (configuration not stated) | inactive |
| CC(=O)c1ccc(-n2c(C)ccc2-c2ccccc2)cc1 | inconclusive: 18.5 µM [inhibitor, single point] |
| Cc1noc(C)c1C(=O)N1CCCc2ccccc21 | inactive |
| CCOC(=O)C1(S(=O)(=O)c2ccccc2)CCN(Cc2ccc(Cl)cc2)CC1 | active: 7.38 µM |
| CCOC(=O)c1c(-c2ccco2)csc1NC(=O)CSc1nnc(N)s1 | inactive |
| COc1ccc(C(=O)NCCN2C(=O)S/C(=C\c3cccnc3)C2=O)cc1[N+](=O)[O-] | inconclusive: 2.33 µM [inhibitor, full curve] |
| Cc1cc(C(=O)NCCc2ccccc2)ccc1[N+](=O)[O-] | inactive |
| Fc1ccc(CN2CCSCC2)cc1Br | inconclusive: 1.65 µM [inhibitor, full curve] |
| CCOC(=O)C(C)Sc1nc2c(c(=O)[nH]c(=O)n2C)n1CCc1ccccc1 (configuration not stated) | inconclusive: 18.5 µM [inhibitor, single point] |
| COc1ccc(S(=O)(=O)N(CCCN2CCCC2=O)Cc2cc3cc(C)c(C)cc3[nH]c2=O)cc1 | inconclusive: 0.0828 µM [inhibitor, full curve, poor fit] |
| Clc1ccc(-n2ncc3c(NCc4ccc5c(c4)OCO5)ncnc32)cc1 | inactive |
| O=S(=O)([O-])CCC[n+]1c(/C=C\Nc2ccccc2)oc2ccc(-c3ccccc3)cc21 | inconclusive: 18.5 µM [inhibitor, single point] |
| Cc1ccccc1C(=O)NC1CC2CCCC(C1)N2Cc1ccccc1 (configuration not stated) | inconclusive: 13.1 µM [inhibitor, single point] |
| CCN(CC)CCNC(=O)c1ccc(NC(=O)c2ccc(COc3ccccc3)cc2)cc1 | inconclusive: 20.8 µM [inhibitor, single point] |
| CCOc1ccc(-c2cccc(NS(=O)(=O)c3ccc([N+](=O)[O-])cc3)c2)nn1 | inconclusive: 18.5 µM [inhibitor, partial curve, poor fit] |
| O=C(Nc1ccc(NC(=O)c2cccs2)cc1)c1ccc2ccccc2c1 | inconclusive: 18.5 µM [inhibitor, single point] |
| CC1CCC2C(C)C(=O)OC3OC4(C)CCC1C32OO4 (configuration not stated) | inactive |
| CNC(=S)N1N=C(c2ccc(C)cc2)CC1c1ccc(N(C)C)cc1 (configuration not stated) | inconclusive: 8.28 µM [inhibitor, single point] |
| CCC(=O)N(Cc1cc(=O)[nH]c2ccccc12)c1ccc(C)cc1 | inconclusive: 13.1 µM [inhibitor, partial curve, poor fit] |
| N#Cc1ccc(C23CC4(C2)[C@H](CN(CC2CCCCC2)[C@@H]4c2ccccc2)C3c2ccc(Cl)nc2)cc1 (some centres not stated) | inconclusive: 18.5 µM [inhibitor, single point] |
| Nn1c(-c2ccccc2)nc2ccccc2c1=O | inconclusive: 13.1 µM [inhibitor, partial curve, poor fit] |
| O=C(Nc1ccc2c(c1)OCO2)C1CCN(C(=O)CSc2ncnc3ccccc23)CC1 | inactive |
| Nc1[nH]c(=O)[nH]c(=O)c1N=Nc1ccccc1Cl | inactive |

| Compound | Potency |
| --- | --- |
| COc1ccc(OC)c(N(CC(=O)Nc2cccnc2)S(=O)(=O)c2ccccc2)c1 | inconclusive: 18.5 µM [inhibitor, single point] |
| Cc1cccc(C)c1-n1cccc1/C=C1\SC(=S)N(c2cccc(C(=O)O)c2)C1=O | inactive |
| Cc1ccc2nc(C)cc(C(=O)OCC(=O)Nc3c(C)n(C)n(-c4ccccc4)c3=O)c2c1 | inactive |
| CCOc1cc(C(=O)Nc2ccc3c4c(cccc24)C(=O)N3CC)cc(OCC)c1OCC | inconclusive: 9.28 µM [inhibitor, partial curve, poor fit] |
| CC1c2[nH]c3ccccc3c2C[C@H]2C(=O)N(CCCO)CC(=O)N12 (some centres not stated) | inactive |
| CNC(=O)Cc1nc2ccccc2n1CC(=O)Nc1cc(C)cc(C)c1 | inconclusive: 5.86 µM [inhibitor, single point] |
| COC(=O)c1cc2c(C)nn(-c3ccccc3)c2s1 | inconclusive: 18.5 µM [inhibitor, single point] |
| COc1ccc(C(=O)/C(=C/O)N=Nc2ccc(F)cc2)cc1 | inconclusive: 8.28 µM [inhibitor, partial curve, poor fit] |
| CCC(=O)Nc1cc(C(=O)O)ccc1Sc1ccc(C)cc1 | inconclusive: 0.0586 µM [inhibitor, full curve, poor fit] |
| CCOC(=O)C1(Cc2cccc(F)c2)CCN(C(=O)C2CCCO2)CC1 (configuration not stated) | inactive |
| Cc1cnc(C(=O)Nc2ccc(C)c(S(=O)(=O)N(C)C)c2)cn1 | inconclusive: 4.65 µM [inhibitor, single point] |
| CCCCCn1c(NC(=O)c2ccco2)c(C(=O)OCC)c2nc3ccccc3nc21 | inconclusive: 16.5 µM [inhibitor, single point] |
| O=C(Cn1c2ccccc2c(=O)c2ccccc21)Nc1cccc(F)c1 | inconclusive: 5.22 µM [inhibitor, single point] |
| CCN(C(=O)CSc1nnc(NCc2ccccc2)s1)C1CCS(=O)(=O)C1 (configuration not stated) | inconclusive: 18.5 µM [inhibitor, single point] |
| Cn1c(CNc2nc3ccccc3n2C)nc2ccccc21 | inactive |
| CCOC(=O)c1cnc(SC)nc1Sc1ccc(Cl)cc1Cl | active: 9.28 µM |
| Cc1ccc(CSc2nc3ccccc3cc2C=O)cc1 | inconclusive: 1.31 µM [inhibitor, partial curve, poor fit] |
| CC(C)CNS(=O)(=O)c1ccc(CCC(=O)N2CCCC2)cc1 | inconclusive: 18.5 µM [inhibitor, single point] |
| Oc1ccc(-c2[nH]ncc2-c2cccc3cccnc23)c(O)c1 | inconclusive: 4.65 µM [inhibitor, partial curve, poor fit] |
| O=S(=O)(NC1CCCC1)c1cccc(-c2nnc(-c3ccccc3)o2)c1 | inconclusive: 18.5 µM [inhibitor, single point] |
| CN(C)c1ccnc(-n2cccc2/C=N/OCc2cccc(F)c2)c1C#N | inconclusive: 7.38 µM [inhibitor, single point] |
| CC#CC(=O)N1CCCC(Cc2cccc(OC)c2)(C(=O)OCC)C1 (configuration not stated) | active: 6.57 µM |
| COc1cccc(C2=NOC(C(=O)Nc3ccc(OC)c(OC)c3)C2)c1 (configuration not stated) | inconclusive: 18.5 µM [inhibitor, single point] |

| Compound | Potency |
| --- | --- |
| O=C(Nc1ccccc1N1CCOCC1)c1cc2ccccc2o1 | inconclusive: 0.0586 µM [inhibitor, full curve, poor fit] |
| COc1ccc(NC(=O)CC2C(=O)N(c3ccc(OC)cc3)C(=S)N2NC(=O)c2cccc(F)c2)cc1 (configuration not stated) | inactive |
| COc1cc(C(=O)NCCc2ccc(S(N)(=O)=O)cc2)ccc1OCc1c(C)noc1C | inconclusive: 9.28 µM [inhibitor, partial curve, poor fit] |
| CCn1c(=O)c(C(=O)Nc2ncccc2C)c(O)c2ccccc21 | inconclusive: 5.22 µM [inhibitor, partial curve, poor fit] |
| CN(CC(=O)Nc1cccc(F)c1)C(=O)c1ccc(N2CCCCCC2)c([N+](=O)[O-])c1 | inconclusive: 10.4 µM [inhibitor, single point] |
| Cn1cccc1C(=O)C(=O)Nc1ccccc1 | inactive |
| CC(Nc1nc(-c2cccc(Br)c2)cs1)c1nc2cc(Cl)c(N3CCCCC3)cc2n1CCOCCO (configuration not stated) | inconclusive: 1.04 µM [inhibitor, partial curve, poor fit] |
| C/C(=N\NC(N)=S)C1(C)CCCCC1 | inconclusive: 11.7 µM [inhibitor, single point] |
| O=C(NCCC1CCCCN1S(=O)(=O)c1ccccc1)C(=O)NCc1cccnc1 (configuration not stated) | inconclusive: 13.1 µM [inhibitor, single point] |
| COc1ccc(N=C2S/C(=C\c3ccc(N4CCOCC4)o3)C(=O)N2CCc2c[nH]c3ccccc23)cc1 | inconclusive: 5.22 µM [inhibitor, partial curve] |
| CCCc1c(NC(=O)Nc2ccc(Cl)cc2Cl)cnn1-c1ccccc1 | inconclusive: 0.415 µM [inhibitor, full curve, poor fit] |
| COc1ccc(CN2CCN(C(=O)c3ccc(S(=O)(=O)NCc4ccco4)cc3)CC2)cc1 | inactive |
| Cc1cc(OCC(=O)NCC(O)c2ccccc2)c2c3c(c(=O)oc2c1)CCCC3 (configuration not stated) | inconclusive: 11.7 µM [inhibitor, single point] |
| N=c1n(CCN2CCOCC2)c2ccccc2n1CC(=O)c1cccc([N+](=O)[O-])c1 | inconclusive: 13.1 µM [inhibitor, single point] |
| COc1ccc(S(=O)(=O)NCc2ccncc2)cc1NC(=O)c1ccc(Cl)cc1 | inconclusive: 10.4 µM [inhibitor, partial curve] |
| O=S(=O)(c1ccc(Cl)cc1)N1CCN=C1SCc1cccc(Cl)c1 | inconclusive: 11.7 µM [inhibitor, single point] |
| Cn1c2ccccc2c2nnc(SCC(=O)NC3CCCC3)nc21 | inconclusive: 18.5 µM [inhibitor, single point] |
| O=C(NC(=O)c1ccccc1F)OCc1ccc(Cl)cc1Cl | inactive |
| Cc1nc2nc[nH]n2c(=O)c1CCOC(=O)c1ccccc1F | inconclusive: 18.5 µM [inhibitor, single point] |
| O=C(O)c1nn(CC(=O)N2CCC(Cc3ccccc3)CC2)c(=O)c2ccccc12 | inactive |
| Cc1onc(-c2ccccc2Cl)c1C(=O)N1CCCCC1C (configuration not stated) | inconclusive: 18.5 µM [inhibitor, single point] |

Laid out differently: 3 of the compounds above
Compound	Potency
O=C(Nc1ccccc1N1CCOCC1)c1cc2ccccc2o1	inconclusive: 0.0586 µM [inhibitor, full curve, poor fit]
Cc1cc(OCC(=O)NCC(O)c2ccccc2)c2c3c(c(=O)oc2c1)CCCC3 (configuration not stated)	inconclusive: 11.7 µM [inhibitor, single point]
Cc1onc(-c2ccccc2Cl)c1C(=O)N1CCCCC1C (configuration not stated)	inconclusive: 18.5 µM [inhibitor, single point]
